Data published in publication PMC4371837.

Chains of the proteins cited; added tags and fusions are not shown.
UniProt Q8VIG1: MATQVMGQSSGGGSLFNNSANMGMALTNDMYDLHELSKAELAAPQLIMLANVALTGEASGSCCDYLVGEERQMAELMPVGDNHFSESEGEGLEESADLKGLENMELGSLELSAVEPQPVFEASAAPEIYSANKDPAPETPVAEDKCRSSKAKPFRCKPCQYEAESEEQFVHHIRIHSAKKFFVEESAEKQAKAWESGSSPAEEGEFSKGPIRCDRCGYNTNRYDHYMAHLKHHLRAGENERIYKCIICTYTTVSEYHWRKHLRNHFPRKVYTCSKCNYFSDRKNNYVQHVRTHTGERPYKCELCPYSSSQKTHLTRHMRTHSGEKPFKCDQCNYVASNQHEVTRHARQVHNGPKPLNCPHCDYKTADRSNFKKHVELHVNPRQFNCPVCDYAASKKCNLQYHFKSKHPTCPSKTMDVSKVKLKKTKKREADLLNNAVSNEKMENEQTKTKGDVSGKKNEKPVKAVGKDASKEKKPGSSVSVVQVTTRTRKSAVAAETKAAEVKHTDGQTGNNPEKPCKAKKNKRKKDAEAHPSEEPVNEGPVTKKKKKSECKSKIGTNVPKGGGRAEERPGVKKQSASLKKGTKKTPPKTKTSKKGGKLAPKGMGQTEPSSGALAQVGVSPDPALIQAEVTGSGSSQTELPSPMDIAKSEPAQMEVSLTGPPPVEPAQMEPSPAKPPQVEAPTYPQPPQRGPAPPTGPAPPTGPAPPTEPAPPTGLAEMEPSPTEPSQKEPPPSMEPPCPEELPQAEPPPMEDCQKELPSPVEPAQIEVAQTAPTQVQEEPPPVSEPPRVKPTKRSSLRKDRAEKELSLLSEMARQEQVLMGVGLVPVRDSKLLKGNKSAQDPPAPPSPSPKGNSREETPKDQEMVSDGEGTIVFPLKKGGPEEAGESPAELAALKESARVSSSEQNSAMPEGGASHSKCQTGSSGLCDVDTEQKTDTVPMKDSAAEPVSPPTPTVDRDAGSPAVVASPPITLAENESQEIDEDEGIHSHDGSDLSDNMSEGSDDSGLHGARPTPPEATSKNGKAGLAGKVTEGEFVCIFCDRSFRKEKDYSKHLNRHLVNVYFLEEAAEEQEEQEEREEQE

B1: Cdyl (protein, UniProt Q9WTK2 1-593)
chain: MGIGNSQPNSQEAQLCTLPEKAEQPTDDNTCQQNNVVPATVSEPDQASPAIQDAETQVESIVDKRKNKKGKTEYLVRWKGYDSEDDTWEPEQHLVNCEEYIHDFNRRHNERQKEGSLARASRASPSNARKQISRSTHSTLSKTNSKALVVGKDHESKSSQLLAASQKFRKNPAPSLANRKNMDLAKSGIKILVPKSPVKGRTSVDGFQGESPEKLDPVDQGAEDTVAPEVTAEKPTGALLGPGAERARMGSRPRIHPLVPQVSGPVTAAMATGLAVNGKGTSPFMDALAANGTVTIQTSVTGVTAGKRKFIDDRRDQPFDKRLRFSVRQTESAYRYRDIVVRKQDGFTHILLSTKSSENNSLNPEVMKEVQSALSTAAADDSKLVLLSAVGSVFCCGLDFIYFIRRLTDDRKRESTKMADAIRNFVNTFIQFKKPIIVAVNGPAIGLGASILPLCDVVWANEKAWFQTPYTTFGQSPDGCSTVMFPKIMGGASANEMLFSGRKLTAQEACGKGLVSQVFWPGTFTQEVMVRIKELASCNPVVLEESKALVRCNMKMELEQANERECEVLKKIWGSAQGMDSMLKYLQRKIDEF
B2: Cdyl2 (protein, UniProt Q9D5D8 1-503)
chain: MASGDLYEVERIVDKRKNKKGKWEYLIRWKGYGSTEDTWEPEHHLLHCEEFIDEFNGLHLSKDKRVKSGKQAGASKLLRDARGLPVERLSHRPLEPGKSKPSSHKRKRVNSPLSRPKKGSSGKAPDRATKTVSYRTTPSGLQIMPLKKAQNGLENGDAGSEKDESHFGNGSHQPDLELNDQLGEQEASDCDGTHSALVENGVGSALTNGGLNLHSPVKRKLETEKDYVFDKRLRYSVRQNESNCRFRDIVVRKEEGFTHILLSSQTSDNNALTPEIMKEVRRALCNAATDDSKLLLLSAVGSVFCSGLDYSYLIGRLSSDRRKESTRIAEAIRDFVKAFIQFKKPIVVAINGPALGLGASILPLCDIVWASEKAWFQTPYATIRLTPAGCSSYTFPQILGVALANEMLFCGRKLTAQEACSRGLVSQVFWPTTFSQEVMLRVKEMASCSAVVLEESKCLVRSFLKSVLEEVNEKECVMLKQLWSSSKGLDSLFSYLQDKIYEV
B3: Fbxwi 1 (protein, UniProt Q5SRY7 1-542)
chain: MEPDSVIEDKTIELMCSVPRSLWLGCANLVESMCALSCLQSMPSVRCLQISNGTSSVIVSRKRPSEGNYQKEKDLCIKYFDQWSESDQVEFVEHLISRMCHYQHGHINSYLKPMLQRDFITALPEQGLDHIAENILSYLDARSLCAAELVCKEWQRVISEGMLWKKLIERMVRTDPLWKGLSERRGWDQYLFKNRPTDGPPNSFYRSLYPKIIQDIETIESNWRCGRHNLQRIQCRSENSKGVYCLQYDDDKIISGLRDNSIKIWDKSSLECLKVLTGHTGSVLCLQYDERVIVTGSSDSTVRVWDVNTGEVLNTLIHHNEAVLHLRFSNGLMVTCSKDRSIAVWDMASATDITLRRVLVGHRAAVNVVDFDDKYIVSASGDRTIKVWSTSTCEFVRTLNGHKRGIACLQYRDRLVVSGSSDNTIRLWDIECGACLRVLEGHEELVRCIRFDNKRIVSGAYDGKIKVWDLQAALDPRAPASTLCLRTLVEHSGRVFRLQFDEFQIISSSHDDTILIWDFLNVPPSAQNETRSPSRTYTYISR
B4: Btrc (protein, UniProt Q3ULA2 1-605)
chain: MDPAEAVLQEKALKFMCSMPRSLWLGCSSLADSMPSLRCLYNPGTGALTAFQNSSEREDCNNGEPPRKIIPEKNSLRQTYNSCARLCINQETVCLTSTAMKTENCVAKAKLANGTSSMIVPKQRKLSASYEKEKELCVKYFEQWSESDQVEFVEHLISQMCHYQHGHINSYLKPMLQRDFITALPARGLDHIAENILSYLDAKSLCAAELVCKEWYRVTSDGMLWKKLIERMVRTDSLWRGLAERRGWGQYLFKNKPPDENAPPNSFYRALYPKIIQDIETIESNWRCGRHSLQRIHCRSETSKGVYCLQYDDQKIVSGLRDNTIKIWDKSTLECKRILTGHTGSVLCLQYDERVIITGSSDSTVRVWDVNAGEMLNTLIHHCEAVLHLRFNNGMMVTCSKDRSIAVWDMASPTDITLRRVLVGHRAAVNVVDFDDKYIVSASGDRTIKVWNTSTCEFVRTLNGHKRGIACLQYRDRLVVSGSSDNTIRLWDIECGACLRVLEGHEELVRCIRFDNKRIVSGAYDGKIKVWDLMAALDPRAPAGTLCLRTLVEHSGRVFRLQFDEFQIVSSSHDDTILIWDFLNDPAAHAEPPRSPSRTYTYISR
B5: Lin28A (protein, UniProt Q8K3Y3 1-209)
chain: MGSVSNQQFAGGCAKAAEKAPEEAPPDAARAADEPQLLHGAGICKWFNVRMGFGFLSMTARAGVALDPPVDVFVHQSKLHMEGFRSLKEGEAVEFTFKKSAKGLESIRVTGPGGVFCIGSERRPKGKNMQKRRSKGDRCYNCGGLDHHAKECKLPPQPKKCHFCQSINHMVASCPLKAQQGPSSQGKPAYFREEEEEIHSPALLPEAQN
B6: Trim71 (protein, UniProt Q1PSW8 1-855)
chain: MASFPETDFQICLLCKEMCGSPAPLSSNSSASSSSSQTSTSSAGGGGPGAAARRLHVLPCLHAFCRPCLEAHRLPAPGGAGPAEALKLRCPVCDQKVVLAEAAGMDALPSSAFLLSNLLDAVVATAEEPPPKNGRAGGGPGGAGGHSNHRHHAHHPAQRAAAPAPQPPPGPAASPGSLLMRRPHGCSSCDEGNAASSRCLDCQEHLCDNCVRAHQRVRLTKDHYIERGPPGPAAASAAQQLGLGPPFAGAPFSILSVFPERLGFCQHHDDEVLHLYCDTCSVPICRECTLGRHGGHSFAYLQDALQDSRALTIQLLADAQQGRQALQLSIEQAQTVAEQVEMKAKVVQSEVKAVTARHKKALEDRECELLWKVEKIRQVKAKSLFLQVEKLRQSLSKLESTISAVQQVLEEGRALDILLARDRMLAQVQELKTIRGLLQPQEDDRIMFTPPDQALYLALKSIGFVSSGAFAPLTKATGDGIKRALQGKVASFTVMGYDHDGEPRHSGGDLMSVVVLGPDGNLFGAEVSDQQNGTYIVSYRPQLEGEHLVSVTLYNQHIENSPFKVVVKSGRSYVGIGLPGLSFGSEGDGEGKLCRPWGVSVDKEGFIIVADRSNNRIQVFKPCGSFHHKFGTLGSRPGQFDRPAGVACDASRRIIVADKDNHRIQIFTFEGQFLLKFGEKGTKNGQFNYPWDVAVNSEGKILVSDTRNHRIQLFGPDGVFLNKYGFEGSLWKHFDSPRGVAFNNEGHLVVTDFNNHRLLVIHPDCQSARFLGSEGSGNGQFLRPQGVAVDQEGRIIVADSRNHRVQMFEANGSFLCKFGAQGSGFGQMDRPSGIAVTPDGLIVVVDFGNNRILIF
B7: Utf1 (protein, UniProt Q6J1H4 1-339)
chain: MLLRPRRLPAFSPPSPASPDAELRSAGDVPVTTSDAFATSGGMAEPGSPKAPVSPDSAQRTPWSARETELLLGTLLQPAMWRSLLLDRRQTLPTYRRVSAALARQQVRRTPAQCRRRYKFLKDKLRDSQGQPSGPFDNQIRQLMGLLGDDGPPRVRRRSTGPGRPQRRGRSSLSALAPAPAPVEQEAELPLAAENDEPAPALRFSSSTTKSAGAHRITSSPPLTSTDTLPPEPGHTFESSPTPTPDHDVETPNEPPGLSQGRASSPQVAPQSLNTALLQTLTHLGDISTVLGPLRDQLSTLNQHVEHLRGSFDQTVSLAVGFILGSAASERGILGDLRQ
B8: Bxdc2 (protein, UniProt Q9DCA5 1-353)
chain: MAATKRKRRGGLEVQAKKPKRSSKDAGQPAKQADVAKEAEEENRDRIPGPVCKGKWKNKERILIFSSRGINFRTRHLMQDLRMLMPHSKADTKMDRKDKLFVINEVCEMKNCNKCIYFEAKKKQDLYMWLSNSPHGPSAKFLVQNIHTLAELKMTGNCLKGSRPLLSFDPAFDDLPHYALLKEFLIQIFSTPRYHPKSQPFVDHVFTFTILDNRIWFRNFQIIEEDAALVEIGPRFVLNLIKIFQGSFGGPTLYENPHYQSPNMHRRVIRSITAAKYRERQQVKDVQKLRKKEPKTILPHDPTADVFVIPAEEKPVEIQWVKPEPKVDLKARKRRIYKRHRKLQQKMSRGSAK
B9: Gcdh (protein, UniProt Q60759 45-438)
chain: RPVFDWKDPLILEEQLTADEKLIRDTFRNYCQERLMSRILLANRNEVFHRDIVYEMGELGVLGPTIKGYGCAGVSSVAYGLLTRELERVDSGYRSMMSVQSSLVMHPIYTYGSEEQRQKYLPGLAKGELLGCFGLTEPNHGSDPGGMETRARHNPSNQSYTLSGTKTWITNSPVADLFIVWARCEDNCIRGFILEKGMRGLSAPRIEGKFSLRASATGMIIMDSVEVPEENVLPNVSSLAGPFGCLNTARYGITWGVLGAAEFCLHTARQYALDRIQFGVPLARNQLVQKKLADMLTEITLGLHACLQLGRLKDQDKATPEMVSMLKRNNCGKALDIARQARDILGGNGISDEYHVIRHAMNLEAVNTYEGTHDIHALILGRAITGIQAFTVGK
B10: Sin3a (protein, UniProt Q60520 1-1274)
chain: MKRRLDDQESPVYAAQQRRIPGSTEAFSHQHRVLAPAPPVYEAVSETMQSATGIQYSVAPNYQVSAVPQSSGSHGPAIAAVHSSHHHPTAVQPHGGQVVQSHAHPAPPVAPVQGQQQFQRLKVEDALSYLDQVKLQFGSQPQVYNDFLDIMKEFKSQSIDTPGVISRVSQLFKGHPDLIMGFNTFLPPGYKIEVQTNDMVNVTTPGQVHQIPTHGIQPQPQPPPQHPSQPSSQSAPTPAQPAPQPTAAKVSKPSQLQAHTPASQQTPPLPPYASPRSPPVQPHTPVTISLGTAPSLQNNQPVEFNHAINYVNKIKNRFQGQPDIYKAFLEILHTYQKEQRNAKEAGGNYTPALTEQEVYAQVARLFKNQEDLLSEFGQFLPDANSSVLLSKTTAEKVDSVRNDHGGTVKKPQLNNKPQRPSQNGCQIRRHSGTGATPPVKKKPKLMSLKESSMADASKHGVGTESLFFDKVRKALRSAEAYENFLRCLVIFNQEVISRAELVQLVSPFLGKFPELFNWFKNFLGYKESVHLESFPKERATEGIAMEIDYASCKRLGSSYRALPKSYQQPKCTGRTPLCKEVLNDTWVSFPSWSEDSTFVSSKKTQYEEHIYRCEDERFELDVVLETNLATIRVLEAIQKKLSRLSAEEQAKFRLDNTLGGTSEVIHRKALQRIYADKAADIIDGLRKNPSIAVPIVLKRLKMKEEEWREAQRGFNKVWREQNEKYYLKSLDHQGINFKQNDTKVLRSKSLLNEIESIYDERQEQATEENAGVPVGPHLSLAYEDKQILEDAAALIIHHVKRQTGIQKEDKYKIKQIMHHFIPDLLFAQRGDLSDVEEEEEEEMDVDEATGAPKKHNGVGGSPPKSKLLFSNTAAQKLRGMDEVYNLFYVNNNWYIFMRLHQILCLRLLRICSQAERQIEEENREREWEREVLGIKRDKSDSPAIQLRLKEPMDVDVEDYYPAFLDMVRSLLDGNIDSSQYEDSLREMFTIHAYIAFTMDKLIQSIVRQLQHIVSDEVCVQVTDLYLAENNNGATGGQLNSQTSRSLLESAYQRKAEQLMSDENCFKLMFIQSQGQVQLTVELLDTEEENSDDPVEAERWSDYVERYMSSDTTSPELREHLAQKPVFLPRNLRRIRKCQRGREQQEKEGKEGNSKKTMENVESLDKLECRFKLNSYKMVYVIKSEDYMYRRTALLRAHQSHERVSKRLHQRFQAWVDKWTKEHVPREMAAETSKWLMGEGLEGLVPCTTTCDTETLHFVSINKYRVKYGTVFKAP

These binders were tested against Flag-BioT-mREST (mouse REST tagged with a biotin acceptor sequence) (mouse) (UniProt Q8VIG1) (assay: affinity purification with mass spectrometry; biotin-tagged REST captured on streptavidin M-280 magnetic beads from cleared whole-cell lysate of mouse ESCs (clone #60), 4°C, 3 hr, 50 mM Tris-Cl pH 7.5, 150 mM NaCl, 0.5% Triton X-100, 0.5 mM EDTA, 10% glycerol; MudPIT on three independent purifications; parental BirA-J1 cells as control).

Binder	binding
B1	binds
B2	binds
B3	binds
B4	binds
B5	binds
B6	binds
B7	binds
B8	binds
B9	binds
B10	binds

No constants are given. Whether binding was seen depends on the method and setting. In cells and extracts the contact can be indirect. Here binding means that the protein was enriched with, or labelled near, the bait; the list need not be complete.
